Measured values reported in the supplement of paper PMC12819154, “High-throughput peptide-centric local stability assay extends protein–ligand identification to membrane proteins, tissues and bacteria” (Nature Structural & Molecular Biology, 2025).
Some of the results follow. Most entries show no effect beyond the scatter of the controls.

The chains behind the UniProt entries cited, without tags or fusion partners. Where a name states a change or a piece, a line headed by the entry shows the natural chain unless it says otherwise.
UniProt Q9H7B2: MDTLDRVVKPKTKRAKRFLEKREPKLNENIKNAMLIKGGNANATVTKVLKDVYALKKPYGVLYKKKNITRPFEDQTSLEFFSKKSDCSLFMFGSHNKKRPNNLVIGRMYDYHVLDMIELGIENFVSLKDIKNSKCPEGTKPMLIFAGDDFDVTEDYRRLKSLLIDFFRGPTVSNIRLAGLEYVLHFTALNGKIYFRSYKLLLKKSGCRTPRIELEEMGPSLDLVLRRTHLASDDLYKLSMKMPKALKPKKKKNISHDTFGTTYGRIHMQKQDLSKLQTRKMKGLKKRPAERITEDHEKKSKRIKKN
UniProt Q9H7C9: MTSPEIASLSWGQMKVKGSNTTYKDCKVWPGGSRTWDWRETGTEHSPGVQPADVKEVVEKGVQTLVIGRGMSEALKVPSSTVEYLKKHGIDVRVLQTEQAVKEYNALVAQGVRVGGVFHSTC
UniProt Q9HCJ3: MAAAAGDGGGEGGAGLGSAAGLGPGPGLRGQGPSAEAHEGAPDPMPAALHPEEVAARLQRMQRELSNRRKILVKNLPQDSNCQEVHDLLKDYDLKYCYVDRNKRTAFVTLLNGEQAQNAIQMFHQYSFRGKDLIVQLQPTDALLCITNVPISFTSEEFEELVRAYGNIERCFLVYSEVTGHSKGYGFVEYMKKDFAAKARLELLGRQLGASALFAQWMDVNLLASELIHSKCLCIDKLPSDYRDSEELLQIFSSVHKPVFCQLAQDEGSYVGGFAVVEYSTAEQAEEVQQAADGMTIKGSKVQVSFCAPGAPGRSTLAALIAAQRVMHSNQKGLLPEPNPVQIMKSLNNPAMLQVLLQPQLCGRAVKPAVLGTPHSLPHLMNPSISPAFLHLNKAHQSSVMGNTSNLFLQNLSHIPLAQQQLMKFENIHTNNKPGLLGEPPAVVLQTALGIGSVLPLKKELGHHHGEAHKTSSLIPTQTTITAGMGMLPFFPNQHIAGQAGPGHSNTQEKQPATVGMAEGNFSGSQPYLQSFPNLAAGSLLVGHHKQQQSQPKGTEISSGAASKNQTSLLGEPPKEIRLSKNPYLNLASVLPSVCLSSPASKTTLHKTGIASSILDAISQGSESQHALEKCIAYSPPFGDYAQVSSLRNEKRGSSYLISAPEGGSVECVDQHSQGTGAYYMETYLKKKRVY
UniProt Q9HCL3: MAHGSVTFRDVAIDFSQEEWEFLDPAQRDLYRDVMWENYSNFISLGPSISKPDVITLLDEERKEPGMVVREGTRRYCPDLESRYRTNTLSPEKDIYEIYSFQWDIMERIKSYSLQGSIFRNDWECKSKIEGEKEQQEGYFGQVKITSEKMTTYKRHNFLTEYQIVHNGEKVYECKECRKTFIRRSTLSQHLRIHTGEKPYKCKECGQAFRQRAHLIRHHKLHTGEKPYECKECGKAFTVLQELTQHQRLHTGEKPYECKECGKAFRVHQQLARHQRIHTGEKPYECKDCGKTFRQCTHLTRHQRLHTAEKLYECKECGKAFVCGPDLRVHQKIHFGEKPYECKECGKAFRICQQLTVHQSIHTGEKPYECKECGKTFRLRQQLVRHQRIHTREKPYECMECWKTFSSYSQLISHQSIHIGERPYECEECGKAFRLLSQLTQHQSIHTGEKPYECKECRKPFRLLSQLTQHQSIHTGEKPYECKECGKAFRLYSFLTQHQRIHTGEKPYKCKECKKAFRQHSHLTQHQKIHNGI
UniProt Q9HC07: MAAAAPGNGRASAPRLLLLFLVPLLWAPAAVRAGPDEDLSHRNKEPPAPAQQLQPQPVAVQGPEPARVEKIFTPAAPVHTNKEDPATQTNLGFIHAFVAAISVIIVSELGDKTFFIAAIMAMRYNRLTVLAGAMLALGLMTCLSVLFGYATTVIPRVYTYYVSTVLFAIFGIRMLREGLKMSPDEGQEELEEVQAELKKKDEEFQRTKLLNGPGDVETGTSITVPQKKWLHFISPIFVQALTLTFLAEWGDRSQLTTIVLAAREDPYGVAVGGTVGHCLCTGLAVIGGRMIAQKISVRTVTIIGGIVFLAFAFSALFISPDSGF
UniProt Q9NPJ4: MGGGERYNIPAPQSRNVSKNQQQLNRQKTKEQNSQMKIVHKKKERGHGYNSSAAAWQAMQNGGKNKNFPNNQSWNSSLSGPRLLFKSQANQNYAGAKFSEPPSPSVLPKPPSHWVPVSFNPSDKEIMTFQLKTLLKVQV
UniProt Q9H993: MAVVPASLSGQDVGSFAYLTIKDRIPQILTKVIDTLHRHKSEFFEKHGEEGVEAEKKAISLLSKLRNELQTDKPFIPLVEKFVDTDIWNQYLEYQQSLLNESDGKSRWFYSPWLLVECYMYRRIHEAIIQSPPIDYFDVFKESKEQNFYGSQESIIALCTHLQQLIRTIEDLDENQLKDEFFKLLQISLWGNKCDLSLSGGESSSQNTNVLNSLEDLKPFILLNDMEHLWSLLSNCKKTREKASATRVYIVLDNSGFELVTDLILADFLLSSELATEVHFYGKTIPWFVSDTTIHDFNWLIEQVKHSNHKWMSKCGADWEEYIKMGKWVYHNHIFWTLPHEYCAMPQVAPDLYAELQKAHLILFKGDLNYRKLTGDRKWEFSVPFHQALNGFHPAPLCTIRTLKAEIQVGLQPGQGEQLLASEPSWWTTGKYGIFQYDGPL
UniProt Q9H6L4: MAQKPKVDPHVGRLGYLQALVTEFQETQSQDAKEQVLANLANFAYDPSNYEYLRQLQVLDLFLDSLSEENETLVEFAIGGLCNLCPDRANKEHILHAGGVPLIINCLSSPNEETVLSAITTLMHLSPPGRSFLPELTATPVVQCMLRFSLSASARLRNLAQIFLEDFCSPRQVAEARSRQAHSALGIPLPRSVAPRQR
UniProt Q9NP64: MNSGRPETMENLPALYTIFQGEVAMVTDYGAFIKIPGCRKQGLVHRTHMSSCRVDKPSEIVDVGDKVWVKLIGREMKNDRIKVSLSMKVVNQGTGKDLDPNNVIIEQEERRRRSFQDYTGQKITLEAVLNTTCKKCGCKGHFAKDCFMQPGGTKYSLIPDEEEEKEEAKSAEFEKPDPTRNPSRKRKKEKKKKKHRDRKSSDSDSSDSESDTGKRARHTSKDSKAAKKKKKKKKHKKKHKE
UniProt Q9H6Q4: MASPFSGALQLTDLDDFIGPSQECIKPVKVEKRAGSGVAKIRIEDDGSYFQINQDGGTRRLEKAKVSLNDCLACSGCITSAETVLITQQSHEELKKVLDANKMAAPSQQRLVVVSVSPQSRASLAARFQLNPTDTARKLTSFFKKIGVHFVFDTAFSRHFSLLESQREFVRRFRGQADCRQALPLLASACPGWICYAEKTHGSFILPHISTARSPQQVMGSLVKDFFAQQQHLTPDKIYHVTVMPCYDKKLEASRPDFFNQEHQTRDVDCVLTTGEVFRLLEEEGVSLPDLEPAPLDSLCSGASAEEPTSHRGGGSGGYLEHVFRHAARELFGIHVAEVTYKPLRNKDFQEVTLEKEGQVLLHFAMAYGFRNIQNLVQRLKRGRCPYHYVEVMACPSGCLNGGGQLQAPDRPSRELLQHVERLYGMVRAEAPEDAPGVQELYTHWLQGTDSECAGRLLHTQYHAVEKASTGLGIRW
UniProt Q9H857: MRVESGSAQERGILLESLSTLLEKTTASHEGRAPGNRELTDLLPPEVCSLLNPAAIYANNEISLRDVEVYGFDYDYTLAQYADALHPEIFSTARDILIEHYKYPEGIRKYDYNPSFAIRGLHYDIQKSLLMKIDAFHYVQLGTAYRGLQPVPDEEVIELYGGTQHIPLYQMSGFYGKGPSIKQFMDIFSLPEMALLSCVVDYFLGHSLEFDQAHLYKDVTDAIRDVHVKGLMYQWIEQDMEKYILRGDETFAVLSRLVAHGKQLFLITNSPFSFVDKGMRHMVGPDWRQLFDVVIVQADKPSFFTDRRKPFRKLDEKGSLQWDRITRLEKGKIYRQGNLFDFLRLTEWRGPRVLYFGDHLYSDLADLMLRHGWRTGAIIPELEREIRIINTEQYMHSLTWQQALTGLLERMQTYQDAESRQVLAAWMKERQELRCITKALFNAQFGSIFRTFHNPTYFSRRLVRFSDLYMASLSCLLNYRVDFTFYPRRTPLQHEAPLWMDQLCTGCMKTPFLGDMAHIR
UniProt Q9H4M7: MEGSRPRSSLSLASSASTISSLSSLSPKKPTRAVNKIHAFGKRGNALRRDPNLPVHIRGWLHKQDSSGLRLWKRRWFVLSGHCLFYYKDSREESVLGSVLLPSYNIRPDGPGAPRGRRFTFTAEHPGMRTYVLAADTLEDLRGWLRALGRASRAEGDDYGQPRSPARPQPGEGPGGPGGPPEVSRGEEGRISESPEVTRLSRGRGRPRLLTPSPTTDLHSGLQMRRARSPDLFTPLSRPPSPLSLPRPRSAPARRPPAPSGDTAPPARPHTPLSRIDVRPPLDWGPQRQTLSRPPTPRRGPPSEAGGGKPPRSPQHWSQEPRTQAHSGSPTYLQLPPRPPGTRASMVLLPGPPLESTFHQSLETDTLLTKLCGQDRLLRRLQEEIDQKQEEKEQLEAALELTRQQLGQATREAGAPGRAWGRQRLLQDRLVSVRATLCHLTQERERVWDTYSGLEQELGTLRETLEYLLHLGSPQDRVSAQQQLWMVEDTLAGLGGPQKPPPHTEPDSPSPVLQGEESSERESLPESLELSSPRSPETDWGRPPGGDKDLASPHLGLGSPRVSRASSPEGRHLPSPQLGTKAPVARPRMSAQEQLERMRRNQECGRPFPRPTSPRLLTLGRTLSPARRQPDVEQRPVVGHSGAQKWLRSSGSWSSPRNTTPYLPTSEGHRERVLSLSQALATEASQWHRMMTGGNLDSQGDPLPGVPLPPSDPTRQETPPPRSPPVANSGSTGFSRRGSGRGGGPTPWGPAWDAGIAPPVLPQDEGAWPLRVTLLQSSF
UniProt Q9NPG3, whole entry: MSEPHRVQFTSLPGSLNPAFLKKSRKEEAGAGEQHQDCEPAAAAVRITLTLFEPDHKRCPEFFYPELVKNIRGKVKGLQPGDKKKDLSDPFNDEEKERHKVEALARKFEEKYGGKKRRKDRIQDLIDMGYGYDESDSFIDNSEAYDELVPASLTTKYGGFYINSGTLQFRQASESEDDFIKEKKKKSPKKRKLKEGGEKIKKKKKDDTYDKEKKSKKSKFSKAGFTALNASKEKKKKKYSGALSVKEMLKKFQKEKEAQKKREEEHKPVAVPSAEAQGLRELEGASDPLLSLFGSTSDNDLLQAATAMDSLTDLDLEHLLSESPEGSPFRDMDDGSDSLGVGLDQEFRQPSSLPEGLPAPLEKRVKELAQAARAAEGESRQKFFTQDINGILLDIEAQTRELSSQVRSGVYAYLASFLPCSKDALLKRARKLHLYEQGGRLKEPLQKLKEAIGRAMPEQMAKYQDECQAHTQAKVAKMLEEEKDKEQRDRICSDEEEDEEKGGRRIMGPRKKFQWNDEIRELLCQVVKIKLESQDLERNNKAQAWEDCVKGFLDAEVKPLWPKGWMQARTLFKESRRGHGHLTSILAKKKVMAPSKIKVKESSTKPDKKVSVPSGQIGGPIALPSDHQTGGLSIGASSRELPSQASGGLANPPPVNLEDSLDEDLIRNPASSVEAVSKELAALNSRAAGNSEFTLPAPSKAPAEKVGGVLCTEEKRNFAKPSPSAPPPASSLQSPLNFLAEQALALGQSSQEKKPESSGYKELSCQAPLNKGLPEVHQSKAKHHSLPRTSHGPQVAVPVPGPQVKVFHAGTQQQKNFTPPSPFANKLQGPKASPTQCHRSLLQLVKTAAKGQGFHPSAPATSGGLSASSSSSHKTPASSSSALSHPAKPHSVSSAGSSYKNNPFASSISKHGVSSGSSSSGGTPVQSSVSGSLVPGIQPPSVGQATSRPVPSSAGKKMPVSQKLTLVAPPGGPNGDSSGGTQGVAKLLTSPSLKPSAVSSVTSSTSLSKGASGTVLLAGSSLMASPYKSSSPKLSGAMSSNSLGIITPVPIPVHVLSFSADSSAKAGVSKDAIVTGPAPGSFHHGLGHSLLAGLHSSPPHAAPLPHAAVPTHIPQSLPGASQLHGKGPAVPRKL
UniProt Q9H4H8: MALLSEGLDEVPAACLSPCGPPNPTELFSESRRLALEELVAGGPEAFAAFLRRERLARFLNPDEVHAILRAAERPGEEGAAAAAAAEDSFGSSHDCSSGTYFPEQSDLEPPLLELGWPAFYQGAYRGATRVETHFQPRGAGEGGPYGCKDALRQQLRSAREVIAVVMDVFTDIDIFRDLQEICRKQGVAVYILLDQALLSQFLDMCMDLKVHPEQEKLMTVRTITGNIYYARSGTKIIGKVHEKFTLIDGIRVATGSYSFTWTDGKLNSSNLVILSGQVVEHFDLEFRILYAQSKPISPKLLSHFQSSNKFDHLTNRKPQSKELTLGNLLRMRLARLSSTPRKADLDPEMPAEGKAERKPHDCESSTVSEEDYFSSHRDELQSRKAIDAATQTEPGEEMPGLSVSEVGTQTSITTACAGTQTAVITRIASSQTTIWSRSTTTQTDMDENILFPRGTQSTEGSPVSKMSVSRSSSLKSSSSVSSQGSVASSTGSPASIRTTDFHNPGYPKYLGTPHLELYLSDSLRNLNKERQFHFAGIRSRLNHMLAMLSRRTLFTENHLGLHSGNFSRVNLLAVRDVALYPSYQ

Compound: CN[C@@H]1C[C@H]2O[C@@](C)([C@@H]1OC)n1c3ccccc3c3c4c(c5c6ccccc6n2c5c31)C(=O)NC4 [staurosporine]
Experiment: log2 fold change of tryptic peptide abundance, ligand vs vehicle (limited proteolysis) (log2 ratio); higher = more trypsin-susceptible (destabilized)
Conditions: ligand concentration: 20 uM; sample: K562 cleared lysate; digestion: 4 min, 22 C (HT-PELSA RT4min, Orbitrap Astral)

| Target | log2 fold change |
| --- | --- |
| UniProt Q9H7B2 (peptide sequence: KSDCSLFMFGSHNKK, peptide start residue: 84) | 0.575 |
| MLXIPL (peptide sequence: WPPPEQWCK, peptide start residue: 211) (UniProt Q9NP71) | -0.552 |
| ATP13A1 (peptide sequence: DSPTLSNSGIR, peptide start residue: 898) (UniProt Q9HD20) | 0.172 |
| MARCHF7 (peptide sequence: IASSMSSTFFSR, peptide start residue: 286) (UniProt Q9H992) | 0.822 |
| UniProt Q9HCE7 (peptide sequence: IGTGGSVVDCR, peptide start residue: 143) | 0.422 |
| UniProt Q9H7C9 (peptide sequence: GMSEALKVPSSTVEYLKK, peptide start residue: 70) | 0.467 |
| POLR1B (peptide sequence: KYNCTLCSR, peptide start residue: 1095) (UniProt Q9H9Y6) | 0.347 |
| RAVER2 (peptide sequence: NQTSLLGEPPKEIR, peptide start residue: 565) (UniProt Q9HCJ3) | 0.28 |
| UniProt Q9HCL3 (peptide sequence: IHTGEKPYECK, peptide start residue: 411) | -0.00813 |
| CHD8 (peptide sequence: CSTPLLHQQYTSR, peptide start residue: 1980) (UniProt Q9HCK8) | -0.434 |
| TMEM165 (peptide sequence: KKDEEFQR, peptide start residue: 199) (UniProt Q9HC07) | 0.169 |
| UniProt Q9NPJ4 (peptide sequence: NQQQLNR, peptide start residue: 20) | 0.478 |
| DEF6 (peptide sequence: TYEMSASDTR, peptide start residue: 289) (UniProt Q9H4E7) | -0.16 |
| UniProt Q9NQ88 (peptide sequence: CSLPATLSR, peptide start residue: 215) | 0.214 |
| TAF9B (peptide sequence: DALVMAQILK, peptide start residue: 15) (UniProt Q9HBM6) | -0.0729 |
| ALG13 (peptide sequence: IESLGYNR, peptide start residue: 29) (UniProt Q9NP73) | 0.118 |
| UniProt Q9H993 (peptide sequence: LRNELQTDKPFIPLVEK, peptide start residue: 65) | -0.0302 |
| SP110 (peptide sequence: LQVVDKVTQR, peptide start residue: 389) (UniProt Q9HB58) | -0.48 |
| RNPEP (peptide sequence: AFELLHLHLDLR, peptide start residue: 33) (UniProt Q9H4A4) | -0.718 |

Fetched one by one from the list above (two):

| Target | log2 fold change |
| --- | --- |
| MARCHF7 (peptide sequence: IASSMSSTFFSR, peptide start residue: 286) (UniProt Q9H992) | 0.822 |
| POLR1B (peptide sequence: KYNCTLCSR, peptide start residue: 1095) (UniProt Q9H9Y6) | 0.347 |

Additional entries

| Target | log2 fold change |
| --- | --- |
| LZTFL1 (peptide sequence: NMKEILTK, peptide start residue: 273) (UniProt Q9NQ48) | 0.399 |
| WDR55 (peptide sequence: ELWSSGHHLK, peptide start residue: 76) (UniProt Q9H6Y2) | 0.48 |
| ARMC7 (peptide sequence: QAHSALGIPLPR, peptide start residue: 180) (UniProt Q9H6L4) | -0.243 |
| CCDC86 (peptide sequence: EPGSPPSVQR, peptide start residue: 44) (UniProt Q9H6F5) | 0.615 |
| ZCCHC17 (peptide sequence: SAEFEKPDPTRNPSR, peptide start residue: 170) (UniProt Q9NP64) | -0.132 |
| CNOT10 (peptide sequence: SNQTTTDNLR, peptide start residue: 75) (UniProt Q9H9A5) | -0.3 |
| C17orf75 (peptide sequence: RLEPPSSSHYCLYSYRGSR, peptide start residue: 29) (UniProt Q9HAS0) | -0.785 |
| UniProt Q9H6Q4 (peptide sequence: ELFGIHVAEVTYKPLR, peptide start residue: 330) | -0.272 |
| NT5DC2 (peptide sequence: TGAIIPELER, peptide start residue: 375) (UniProt Q9H857) | -0.568 |
| USP42 (peptide sequence: SESCSQPVMNGK, peptide start residue: 585) (UniProt Q9H9J4) | 0.74 |
| UniProt Q9H4M7 (peptide sequence: RGPPSEAGGGKPPR, peptide start residue: 299) | 0.372 |
| NMNAT1 (peptide sequence: WTETQDSSQKK, peptide start residue: 129) (UniProt Q9HAN9) | -0.336 |
| TTC12 (peptide sequence: ALVDCEWALK, peptide start residue: 159) (UniProt Q9H892) | 0.392 |
| TANC2 (peptide sequence: TQQYPHLHQQNR, peptide start residue: 1855) (UniProt Q9HCD6) | -0.652 |
| UBN1 (peptide sequence: NFTPPSPFANK, peptide start residue: 816) (UniProt Q9NPG3) | 0.176 |
| METTL8 (peptide sequence: MHCPTVPDEK, peptide start residue: 144) (UniProt Q9H825) | 0.437 |
| RPF1 (peptide sequence: VGIQELGPR, peptide start residue: 303) (UniProt Q9H9Y2) | 0.334 |
| FAM83D (peptide sequence: GTQSTEGSPVSK, peptide start residue: 455) (UniProt Q9H4H8) | -0.264 |
